Test results reported in publication PMC12241364.
No constants are given. Whether binding was seen depends on the method and setting. Binding seen in cells or lysates may run through a third protein. Some binding calls cover weakened binding; strength is not graded here.

Amino acid sequences for entries named in this document (tags omitted).
UniProt Q0D2I5: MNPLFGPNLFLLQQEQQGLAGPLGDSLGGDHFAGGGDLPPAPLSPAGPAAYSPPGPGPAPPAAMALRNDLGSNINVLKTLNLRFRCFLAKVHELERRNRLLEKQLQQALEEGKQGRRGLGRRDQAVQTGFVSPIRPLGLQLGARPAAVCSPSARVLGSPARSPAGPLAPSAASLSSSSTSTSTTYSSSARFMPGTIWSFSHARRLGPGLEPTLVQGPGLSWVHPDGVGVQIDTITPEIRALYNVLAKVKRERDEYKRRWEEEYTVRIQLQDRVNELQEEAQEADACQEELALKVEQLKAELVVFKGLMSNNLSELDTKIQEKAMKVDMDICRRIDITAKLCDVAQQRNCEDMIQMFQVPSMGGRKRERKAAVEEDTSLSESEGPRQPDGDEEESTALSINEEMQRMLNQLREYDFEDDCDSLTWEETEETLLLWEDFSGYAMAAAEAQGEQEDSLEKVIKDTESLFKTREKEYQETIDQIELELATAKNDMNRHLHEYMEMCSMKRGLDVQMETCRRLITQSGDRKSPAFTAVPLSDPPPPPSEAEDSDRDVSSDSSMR
UniProt Q86VI3: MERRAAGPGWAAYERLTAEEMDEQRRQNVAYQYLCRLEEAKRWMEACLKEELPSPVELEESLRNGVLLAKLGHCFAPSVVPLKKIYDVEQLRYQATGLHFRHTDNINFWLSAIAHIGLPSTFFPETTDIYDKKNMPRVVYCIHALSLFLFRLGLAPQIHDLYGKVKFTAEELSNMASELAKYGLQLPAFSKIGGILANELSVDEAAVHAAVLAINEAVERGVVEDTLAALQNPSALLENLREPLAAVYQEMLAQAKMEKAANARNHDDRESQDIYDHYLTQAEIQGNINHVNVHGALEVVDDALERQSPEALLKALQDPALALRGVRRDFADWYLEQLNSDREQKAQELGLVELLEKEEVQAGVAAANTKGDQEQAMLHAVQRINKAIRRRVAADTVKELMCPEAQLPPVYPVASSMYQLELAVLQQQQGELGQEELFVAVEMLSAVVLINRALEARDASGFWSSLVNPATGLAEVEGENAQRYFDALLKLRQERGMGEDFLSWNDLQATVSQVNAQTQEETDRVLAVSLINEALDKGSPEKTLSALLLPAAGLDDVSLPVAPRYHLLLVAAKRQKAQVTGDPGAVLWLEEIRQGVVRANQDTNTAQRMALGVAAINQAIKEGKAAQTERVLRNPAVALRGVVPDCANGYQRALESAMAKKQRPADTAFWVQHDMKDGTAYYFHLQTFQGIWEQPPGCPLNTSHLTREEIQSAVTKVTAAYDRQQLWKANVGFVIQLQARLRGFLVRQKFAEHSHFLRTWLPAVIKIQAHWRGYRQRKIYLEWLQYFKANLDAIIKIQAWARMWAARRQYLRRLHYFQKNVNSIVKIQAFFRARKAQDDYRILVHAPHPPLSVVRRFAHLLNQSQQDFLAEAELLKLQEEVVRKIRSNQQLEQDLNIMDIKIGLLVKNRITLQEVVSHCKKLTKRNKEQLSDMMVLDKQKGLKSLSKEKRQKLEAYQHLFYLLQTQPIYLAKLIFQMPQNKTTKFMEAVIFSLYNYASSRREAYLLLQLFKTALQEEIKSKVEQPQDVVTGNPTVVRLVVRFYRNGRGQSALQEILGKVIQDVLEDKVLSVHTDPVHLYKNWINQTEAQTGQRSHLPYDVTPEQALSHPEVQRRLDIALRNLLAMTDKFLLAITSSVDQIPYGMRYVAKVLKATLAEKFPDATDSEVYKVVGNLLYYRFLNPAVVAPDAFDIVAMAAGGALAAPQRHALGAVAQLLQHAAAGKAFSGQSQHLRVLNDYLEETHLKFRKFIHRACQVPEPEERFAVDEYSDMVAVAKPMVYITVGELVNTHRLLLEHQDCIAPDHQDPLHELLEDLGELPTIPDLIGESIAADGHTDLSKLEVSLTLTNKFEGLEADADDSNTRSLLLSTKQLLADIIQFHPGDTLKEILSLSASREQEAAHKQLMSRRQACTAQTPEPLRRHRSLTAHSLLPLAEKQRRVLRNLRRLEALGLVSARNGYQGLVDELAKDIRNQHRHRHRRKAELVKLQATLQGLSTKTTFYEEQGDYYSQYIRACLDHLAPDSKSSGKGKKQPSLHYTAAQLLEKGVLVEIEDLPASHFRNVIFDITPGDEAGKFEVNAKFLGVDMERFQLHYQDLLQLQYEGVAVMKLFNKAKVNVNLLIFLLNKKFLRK
UniProt P60953: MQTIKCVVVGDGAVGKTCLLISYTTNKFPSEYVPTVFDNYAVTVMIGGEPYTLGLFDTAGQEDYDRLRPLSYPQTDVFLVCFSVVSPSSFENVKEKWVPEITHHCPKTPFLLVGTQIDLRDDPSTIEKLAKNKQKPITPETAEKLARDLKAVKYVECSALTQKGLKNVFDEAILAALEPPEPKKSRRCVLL

Experiments:
[1] = target: Flag-tagged IFFO1 (full-length) (UniProt Q0D2I5); assay: co-IP; full-length IFFO1 and its truncated mutants expressed in IFFO1-/- cells; IP and blot for IQGAP3
[2] = target: Flag-tagged IFFO1 (full-length) (UniProt Q0D2I5); assay: co-IP; Flag-IFFO1 immunoprecipitated on anti-Flag affinity gel from NTEN lysate (150 mM NaCl, 0.5% NP40), overnight; Western blot of the co-precipitated proteins
Myc-tagged IQGAP3 [3] = target: Myc-tagged IQGAP3 (UniProt Q86VI3); assay: co-IP; IP of Myc-tagged IQGAP3 in WT and IFFO1-/- NCI-H1299 cells; blot for Cdc42
Myc-tagged IQGAP3 [4] = target: Myc-tagged IQGAP3 (UniProt Q86VI3); assay: co-IP; IP of Myc-tagged IQGAP3 in IFFO1-/- cells with re-expression of increasing amounts of Flag-IFFO1; blot for Cdc42
[5] = target: Flag-tagged IFFO1 (full-length) (UniProt Q0D2I5); assay: co-IP; Flag-IFFO1 and Myc-IQGAP3 expressed together in IFFO1-/- NCI-H1299 cells
Myc-tagged IQGAP3 [6] = target: Myc-tagged IQGAP3 (UniProt Q86VI3); assay: co-IP; IP of overexpressed Myc-tagged IQGAP3; blot for IFFO1

Substance: IQGAP3 (IQ motif-containing GTPase-activating protein 3), endogenous (from UniProt Q86VI3 1-1631)
- binding [1]: binds
- binding [2]: binds

Substance: Cdc42, endogenous (from UniProt P60953 1-191)
- binding (Myc-tagged IQGAP3 [3]): binds
- binding [2]: no binding
- binding (Myc-tagged IQGAP3 [4]): binds

Substance: Myc-tagged IQGAP3 (from UniProt Q86VI3 1-1631)
- binding [5]: binds

Substance: IFFO1 (construct or endogenous form not stated) (from UniProt Q0D2I5 1-559)
- binding (Myc-tagged IQGAP3 [6]): binds
